These are yes or no findings as the source states them, for the method shown. For some assays here: In cells and extracts the contact can be indirect. Some binding calls cover weakened binding; strength is not graded here. For some assays here: Where a sequence is shown, tags or fusion partners need not be part of it.
T1: DCB domain of BIG1 used to capture endogenous Arl1 (Figure S1A) (human) (UniProt Q9Y6D6)
T1 sequence: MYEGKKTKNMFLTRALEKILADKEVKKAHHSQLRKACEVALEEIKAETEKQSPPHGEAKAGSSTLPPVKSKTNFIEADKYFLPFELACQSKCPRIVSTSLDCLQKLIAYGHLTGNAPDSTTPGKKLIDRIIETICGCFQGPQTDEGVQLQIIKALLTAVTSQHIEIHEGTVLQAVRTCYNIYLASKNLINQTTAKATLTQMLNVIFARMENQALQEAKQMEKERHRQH


Tests used:
[1] = target: Arl1^Q71L-GTP (human Arl1 residues 15–181, Q71L) (human) (UniProt P40616); experiment: crystal structure; Arl1^Q71L-GTP/Mg2+/DCB^Δ51–71, space group C2, one complex per asymmetric unit, 2.3 Å, molecular replacement; both purified
[2] = target: T1, DCB domain of BIG1 used to capture endogenous Arl1 (Figure S1A) (human); experiment: pull-down; DCB domain as bait captures endogenous Arl1 from mammalian cell lysates, GTP-dependent (Figure S1A); only the target purified

| binding [1] | binding [2] | Binder |
| --- | --- | --- |
| binds | – | His6-DCB^Δ51–71 (human BIG1 residues 1–228 with a deletion of residues 51–71 inclusive) (domain or fragment, UniProt Q9Y6D6) MYEGKKTKNMFLTRALEKILADKEVKKAHHSQLRKACEVALEEIKAETEKTNFIEADKYFLPFELACQSKCPRIVSTSLDCLQKLIAYGHLTGNAPDSTTPGKKLIDRIIETICGCFQGPQTDEGVQLQIIKALLTAVTSQHIEIHEGTVLQAVRTCYNIYLASKNLINQTTAKATLTQMLNVIFARMENQALQEAKQMEKERHRQH |
| – | binds | endogenous Arl1 from mammalian cell lysates (protein, UniProt P40616 1-181) MGGFFSSIFSSLFGTREMRILILGLDGAGKTTILYRLQVGEVVTTIPTIGFNVETVTYKNLKFQVWDLGGQTSIRPYWRCYYSNTDAVIYVVDSCDRDRIGISKSELVAMLEEEELRKAILVVFANKQDMEQAMTSSEMANSLGLPALKDRKWQIFKTSATKGTGLDEAMEWLVETLKSRQ |

Reference: paper PMC4956616
